## Cleaved PARP after 72 h of treatment

First drug in all entries: indole-3-carbinol, 4 µM, OCc1c[nH]c2ccccc12

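The test systems are human melanoma cell lines, treated with two drugs together for 72 h and then stained and imaged. The read-out is the fraction of cleaved-PARP-positive nuclei, in % of that fraction in the DMSO control; 200 means twice the control level of this apoptosis marker. Concentrations were fixed for each drug; these are the higher of two levels. These are primary screening values without error estimates. Basal and induced levels differ widely between cell lines.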 An unselected part of the screen is shown.

Partner | MZ2-MEL
CCCCCCCCc1ccc(CCC(N)(CO)CO)cc1 at 10 µM | 186
Cn1cc(C2=C(c3cn(C4CCN(Cc5ccccn5)CC4)c4ccccc34)C(=O)NC2=O)c2ccccc21 at 4 µM | 40.8
CC1(C)NC(=O)N(c2ccc([N+](=O)[O-])c(C(F)(F)F)c2)C1=O at 5 µM | 75.4
COc1ccc(COc2ccc(Cc3cnc(N)nc3N)cc2OC)cc1 at 5 µM | 86.6
O=C(Nc1cccc(Cl)c1)Nc1ncc(CCNc2ncnc3ccsc23)s1 at 0.004 µM | 62.1
N#Cc1c(O)c2c(-c3ccc(-c4ccccc4O)cc3)csc2[nH]c1=O at 10 µM | 38.5
COCC[n+]1c2c(n(Cc3cnccn3)c1C)C(=O)c1ccccc1C2=O at 0.002 µM | 1530
Cc1ccc(Nc2nccc(N(C)c3ccc4c(C)n(C)nc4c3)n2)cc1S(N)(=O)=O at 2 µM | 27.8
Cc1cc([N+](=O)[O-])ccc1NS(=O)(=O)c1cc(Cl)ccc1Cl at 5 µM | 57.8
C=CCn1c(=O)c2cnc(Nc3ccc(N4CCN(C)CC4)cc3)nc2n1-c1cccc(C(C)(C)O)n1 at 0.1 µM | 89.5
CN(NC(=O)CC(=O)NN(C)C(=S)c1ccccc1)C(=S)c1ccccc1 at 0.03 µM | 44.8
COc1ccc(-c2ccc3c(N4CCOCC4)nc(N4C[C@@H](C)O[C@@H](C)C4)nc3n2)cc1CO at 0.1 µM | 115
CC(=O)O[C@@]12CO[C@@H]1C[C@H](O)[C@@]1(C)C(=O)[C@H](O)C3=C(C)[C@@H](OC(=O)[C@H](O)[C@@H](NC(=O)OC(C)(C)C)c4ccccc4)C[C@@](O)([C@@H](OC(=O)c4ccccc4)[C@H]21)C3(C)C at 0.0005 µM | 786
Cc1nc(Nc2ncc(C(=O)Nc3c(C)cccc3Cl)s2)cc(N2CCN(CCO)CC2)n1 at 0.02 µM | 159
CO[C@H]1C[C@@H]2CC[C@@H](C)[C@@](O)(O2)C(=O)C(=O)N2CCCC[C@H]2C(=O)O[C@H]([C@H](C)C[C@@H]2CC[C@@H](OCCO)[C@H](OC)C2)CC(=O)[C@H](C)/C=C(\C)[C@@H](O)[C@@H](OC)C(=O)[C@H](C)C[C@H](C)/C=C/C=C/C=C/1C at 0.1 µM | 98.8
Cn1c(Nc2ccc(C(F)(F)F)cc2)nc2cc(Oc3ccnc(-c4ncc(C(F)(F)F)[nH]4)c3)ccc21 at 0.4 µM | 257
C[C@@H]1CCN(C(=O)CC#N)C[C@@H]1N(C)c1ncnc2[nH]ccc12 at 5 µM | 79.8
O=C(O)C(=O)Nc1sc2c(c1C(=O)O)CCNC2 at 8.33 µM | 109
C[C@@H](Oc1cc(-c2cnn(C3CCNCC3)c2)cnc1N)c1c(Cl)ccc(F)c1Cl at 1 µM | 45.8
O=C(Nc1ccccc1)c1cc([N+](=O)[O-])ccc1Cl at 10 µM | 110
O=C(/C=C/c1cccnc1)NCCCCC1CCN(C(=O)c2ccccc2)CC1 at 0.05 µM | 333
C[C@]1(c2nc3c(C(N)=O)cccc3[nH]2)CCCN1 at 7 µM | 44.5
Cn1cncc1[C@@](N)(c1ccc(Cl)cc1)c1ccc2c(c1)c(-c1cccc(Cl)c1)cc(=O)n2C at 0.05 µM | 85.3
COc1ccc(C2=N[C@@H](c3ccc(Cl)cc3)[C@@H](c3ccc(Cl)cc3)N2C(=O)N2CCNC(=O)C2)c(OC(C)C)c1 at 0.5 µM | 134
Nc1cccc2c1CN(C1CCC(=O)NC1=O)C2=O (centres undefined) at 5 µM | 128
CC(C)(C)c1cnc(CSc2cnc(NC(=O)C3CCNCC3)s2)o1 at 0.05 µM | 324

Once more, the final 2:

* Nc1cccc2c1CN(C1CCC(=O)NC1=O)C2=O (centres undefined) at 5 µM : MZ2-MEL: 128
* CC(C)(C)c1cnc(CSc2cnc(NC(=O)C3CCNCC3)s2)o1 at 0.05 µM : MZ2-MEL: 324

Values as published with doi:10.1371/journal.pone.0140310, rounded.